The data set deals with AsTobZL (ToAureo1 bZIP fused to AsPhot1 linker+LOV2) (Thalassiosira oceanica / Avena sativa (chimera)). Description: EMSA. As to conditions: heparin (high-salt) purification, 2 mM Mg2+. Background: A gel shift assay detects complexes by their altered migration in electrophoresis.

For at least one entry, the source does not settle the construct or the ends of the probe. At least one verdict rests on a figure or table, not on a statement of the authors.

With “TGTAGCGTCTGACGTGGTTCCCAC (double strand) [Aureo-box substrate DNA]”, the binding result reads like this: (dark, <2-fold difference from light) “binds”; (light, <2-fold difference from dark) “binds”.

(Values after article doi:10.1101/2025.03.07.642083.)
